Measurements reported in the supplement of paper PMC10849652.
The list shows a part of the results.

By UniProt entry, the sequences of proteins in these tests, tags left out. Where a name states a change or a piece, a line headed by the entry shows the natural chain unless it says otherwise.
UniProt Q96DI7: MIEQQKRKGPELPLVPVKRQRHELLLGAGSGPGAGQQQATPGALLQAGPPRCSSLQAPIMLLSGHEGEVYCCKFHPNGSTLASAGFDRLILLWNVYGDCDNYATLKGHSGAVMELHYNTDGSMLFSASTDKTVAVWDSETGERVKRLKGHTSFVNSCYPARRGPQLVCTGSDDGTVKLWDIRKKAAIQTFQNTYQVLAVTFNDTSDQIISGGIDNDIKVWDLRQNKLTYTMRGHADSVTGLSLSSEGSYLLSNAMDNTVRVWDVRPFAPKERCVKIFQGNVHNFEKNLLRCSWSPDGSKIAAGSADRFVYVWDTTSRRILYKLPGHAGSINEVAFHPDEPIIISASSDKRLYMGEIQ
UniProt Q13596, whole entry, looked up: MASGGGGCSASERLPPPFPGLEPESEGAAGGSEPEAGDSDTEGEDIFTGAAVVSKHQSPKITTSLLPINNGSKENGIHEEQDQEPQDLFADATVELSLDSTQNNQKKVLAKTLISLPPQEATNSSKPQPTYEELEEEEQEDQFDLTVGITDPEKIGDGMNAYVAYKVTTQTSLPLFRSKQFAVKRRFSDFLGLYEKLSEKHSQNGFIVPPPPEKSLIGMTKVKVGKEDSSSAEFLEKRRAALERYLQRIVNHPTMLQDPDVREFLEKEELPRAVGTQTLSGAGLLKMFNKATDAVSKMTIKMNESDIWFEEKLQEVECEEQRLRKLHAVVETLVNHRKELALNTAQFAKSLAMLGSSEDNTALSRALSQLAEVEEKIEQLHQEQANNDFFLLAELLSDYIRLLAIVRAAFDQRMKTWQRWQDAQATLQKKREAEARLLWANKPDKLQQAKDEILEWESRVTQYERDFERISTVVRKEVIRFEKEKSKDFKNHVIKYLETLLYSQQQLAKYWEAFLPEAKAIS
UniProt O60749: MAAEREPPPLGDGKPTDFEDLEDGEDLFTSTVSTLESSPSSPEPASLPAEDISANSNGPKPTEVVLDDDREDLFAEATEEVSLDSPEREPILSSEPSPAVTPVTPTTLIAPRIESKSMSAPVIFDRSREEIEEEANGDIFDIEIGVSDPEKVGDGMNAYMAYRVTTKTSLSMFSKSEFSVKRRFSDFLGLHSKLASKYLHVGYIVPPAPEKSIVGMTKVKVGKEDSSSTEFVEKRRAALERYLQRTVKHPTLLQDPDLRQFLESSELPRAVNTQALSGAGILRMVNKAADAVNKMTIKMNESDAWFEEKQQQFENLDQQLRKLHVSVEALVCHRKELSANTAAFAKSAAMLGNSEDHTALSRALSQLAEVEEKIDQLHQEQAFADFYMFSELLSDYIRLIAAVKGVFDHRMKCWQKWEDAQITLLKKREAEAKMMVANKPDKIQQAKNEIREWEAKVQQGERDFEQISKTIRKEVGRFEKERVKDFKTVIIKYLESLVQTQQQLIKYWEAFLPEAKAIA
UniProt P52788: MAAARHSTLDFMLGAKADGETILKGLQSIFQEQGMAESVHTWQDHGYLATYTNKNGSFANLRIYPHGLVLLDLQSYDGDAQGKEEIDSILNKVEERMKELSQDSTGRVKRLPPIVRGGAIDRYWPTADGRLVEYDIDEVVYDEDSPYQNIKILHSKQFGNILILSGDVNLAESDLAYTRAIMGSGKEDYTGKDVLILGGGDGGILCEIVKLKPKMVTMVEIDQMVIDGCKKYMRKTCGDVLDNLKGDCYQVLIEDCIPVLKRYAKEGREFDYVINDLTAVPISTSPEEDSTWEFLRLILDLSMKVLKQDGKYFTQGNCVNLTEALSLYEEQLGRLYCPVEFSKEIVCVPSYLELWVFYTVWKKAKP
UniProt O75643, whole entry, looked up: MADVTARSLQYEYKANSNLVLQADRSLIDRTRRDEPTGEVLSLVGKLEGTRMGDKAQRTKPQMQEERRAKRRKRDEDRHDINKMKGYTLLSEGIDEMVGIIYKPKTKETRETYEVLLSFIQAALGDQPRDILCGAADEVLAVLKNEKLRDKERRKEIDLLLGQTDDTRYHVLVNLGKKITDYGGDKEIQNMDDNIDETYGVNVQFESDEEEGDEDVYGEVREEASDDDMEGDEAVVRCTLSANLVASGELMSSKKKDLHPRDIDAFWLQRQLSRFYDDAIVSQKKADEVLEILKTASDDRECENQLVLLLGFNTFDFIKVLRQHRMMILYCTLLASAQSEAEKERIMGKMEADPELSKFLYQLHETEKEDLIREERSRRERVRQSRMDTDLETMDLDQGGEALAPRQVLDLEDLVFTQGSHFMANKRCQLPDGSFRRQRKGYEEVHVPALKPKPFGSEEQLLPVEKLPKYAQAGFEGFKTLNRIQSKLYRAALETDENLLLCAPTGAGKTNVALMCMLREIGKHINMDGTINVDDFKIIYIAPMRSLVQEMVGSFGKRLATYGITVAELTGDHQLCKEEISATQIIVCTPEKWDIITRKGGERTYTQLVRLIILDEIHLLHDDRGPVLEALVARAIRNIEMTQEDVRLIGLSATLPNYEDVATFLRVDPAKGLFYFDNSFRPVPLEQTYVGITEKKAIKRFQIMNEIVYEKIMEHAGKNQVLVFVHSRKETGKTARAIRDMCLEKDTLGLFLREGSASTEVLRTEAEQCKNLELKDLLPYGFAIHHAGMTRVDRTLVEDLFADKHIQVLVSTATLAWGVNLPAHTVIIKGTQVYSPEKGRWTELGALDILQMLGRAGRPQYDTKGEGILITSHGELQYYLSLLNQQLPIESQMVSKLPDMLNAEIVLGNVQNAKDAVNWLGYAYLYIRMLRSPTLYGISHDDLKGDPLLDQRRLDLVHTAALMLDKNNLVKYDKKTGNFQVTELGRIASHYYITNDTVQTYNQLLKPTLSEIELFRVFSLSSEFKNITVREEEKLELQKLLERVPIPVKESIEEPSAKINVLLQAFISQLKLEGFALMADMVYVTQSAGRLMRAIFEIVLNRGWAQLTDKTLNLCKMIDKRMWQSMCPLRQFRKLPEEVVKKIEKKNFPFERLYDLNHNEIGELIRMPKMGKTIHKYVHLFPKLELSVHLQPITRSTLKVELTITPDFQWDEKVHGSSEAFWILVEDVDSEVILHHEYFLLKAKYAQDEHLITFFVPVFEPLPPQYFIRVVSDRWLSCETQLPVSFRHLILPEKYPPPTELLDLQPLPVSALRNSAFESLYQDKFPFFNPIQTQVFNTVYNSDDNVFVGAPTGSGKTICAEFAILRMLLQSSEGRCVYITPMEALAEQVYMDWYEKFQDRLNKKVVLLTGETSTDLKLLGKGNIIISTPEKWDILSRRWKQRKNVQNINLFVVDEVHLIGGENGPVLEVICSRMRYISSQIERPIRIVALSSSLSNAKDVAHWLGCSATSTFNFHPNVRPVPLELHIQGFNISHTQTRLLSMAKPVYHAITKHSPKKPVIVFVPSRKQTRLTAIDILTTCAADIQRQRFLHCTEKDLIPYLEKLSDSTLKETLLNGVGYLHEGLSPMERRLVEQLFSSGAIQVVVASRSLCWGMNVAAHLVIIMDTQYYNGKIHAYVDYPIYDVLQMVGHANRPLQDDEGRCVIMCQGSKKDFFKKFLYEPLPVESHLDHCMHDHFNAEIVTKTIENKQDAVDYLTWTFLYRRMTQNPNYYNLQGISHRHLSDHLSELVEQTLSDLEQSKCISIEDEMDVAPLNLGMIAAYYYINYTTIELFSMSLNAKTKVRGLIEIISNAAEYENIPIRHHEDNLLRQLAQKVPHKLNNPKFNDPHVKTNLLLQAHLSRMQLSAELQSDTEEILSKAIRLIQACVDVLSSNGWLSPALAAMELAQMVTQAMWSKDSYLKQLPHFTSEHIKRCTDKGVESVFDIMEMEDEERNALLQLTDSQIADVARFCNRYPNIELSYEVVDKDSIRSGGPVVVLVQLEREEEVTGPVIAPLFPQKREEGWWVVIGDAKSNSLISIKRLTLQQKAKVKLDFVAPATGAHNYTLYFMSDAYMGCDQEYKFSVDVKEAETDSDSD
UniProt Q13425: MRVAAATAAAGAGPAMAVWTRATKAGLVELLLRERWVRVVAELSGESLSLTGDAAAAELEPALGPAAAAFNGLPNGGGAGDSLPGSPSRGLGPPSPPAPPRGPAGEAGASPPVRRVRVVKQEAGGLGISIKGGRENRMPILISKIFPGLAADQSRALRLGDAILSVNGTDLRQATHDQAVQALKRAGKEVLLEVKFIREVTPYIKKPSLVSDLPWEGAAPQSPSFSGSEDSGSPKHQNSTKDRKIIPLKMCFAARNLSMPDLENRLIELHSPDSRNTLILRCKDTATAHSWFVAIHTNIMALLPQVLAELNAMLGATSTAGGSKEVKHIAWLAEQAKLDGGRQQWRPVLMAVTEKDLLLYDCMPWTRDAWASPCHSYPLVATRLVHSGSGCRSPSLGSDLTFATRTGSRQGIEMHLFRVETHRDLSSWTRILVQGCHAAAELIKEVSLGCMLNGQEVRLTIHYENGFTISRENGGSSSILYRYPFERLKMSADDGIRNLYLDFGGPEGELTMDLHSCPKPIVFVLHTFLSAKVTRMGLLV
UniProt Q96EX1: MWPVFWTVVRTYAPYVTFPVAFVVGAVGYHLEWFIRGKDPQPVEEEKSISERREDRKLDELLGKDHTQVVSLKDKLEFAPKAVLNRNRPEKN
UniProt O14508, whole entry, looked up: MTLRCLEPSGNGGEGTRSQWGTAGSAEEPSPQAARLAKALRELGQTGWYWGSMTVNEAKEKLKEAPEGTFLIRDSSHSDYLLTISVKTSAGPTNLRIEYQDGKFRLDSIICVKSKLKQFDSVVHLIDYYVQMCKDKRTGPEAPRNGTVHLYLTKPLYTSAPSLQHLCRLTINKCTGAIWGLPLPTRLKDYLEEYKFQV
UniProt Q6IEG0: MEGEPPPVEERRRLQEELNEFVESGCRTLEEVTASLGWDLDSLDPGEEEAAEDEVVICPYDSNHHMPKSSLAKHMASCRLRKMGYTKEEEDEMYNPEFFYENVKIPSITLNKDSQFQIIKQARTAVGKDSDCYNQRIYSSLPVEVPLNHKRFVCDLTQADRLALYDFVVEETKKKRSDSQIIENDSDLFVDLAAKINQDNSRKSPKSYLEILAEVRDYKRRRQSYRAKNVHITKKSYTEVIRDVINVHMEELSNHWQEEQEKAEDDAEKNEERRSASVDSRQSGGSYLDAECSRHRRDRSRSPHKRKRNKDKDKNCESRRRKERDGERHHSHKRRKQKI
UniProt Q9NX45: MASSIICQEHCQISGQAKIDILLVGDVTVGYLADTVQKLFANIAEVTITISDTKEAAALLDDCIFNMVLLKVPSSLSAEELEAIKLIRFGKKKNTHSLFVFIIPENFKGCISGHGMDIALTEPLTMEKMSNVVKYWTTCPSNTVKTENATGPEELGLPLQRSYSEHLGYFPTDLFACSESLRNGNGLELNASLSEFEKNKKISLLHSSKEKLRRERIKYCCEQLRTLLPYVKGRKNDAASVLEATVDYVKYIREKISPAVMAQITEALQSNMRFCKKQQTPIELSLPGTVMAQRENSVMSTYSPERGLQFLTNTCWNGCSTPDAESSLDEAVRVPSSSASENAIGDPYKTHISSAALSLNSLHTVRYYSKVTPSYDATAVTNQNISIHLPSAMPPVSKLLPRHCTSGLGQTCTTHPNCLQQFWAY
UniProt Q9UPR3: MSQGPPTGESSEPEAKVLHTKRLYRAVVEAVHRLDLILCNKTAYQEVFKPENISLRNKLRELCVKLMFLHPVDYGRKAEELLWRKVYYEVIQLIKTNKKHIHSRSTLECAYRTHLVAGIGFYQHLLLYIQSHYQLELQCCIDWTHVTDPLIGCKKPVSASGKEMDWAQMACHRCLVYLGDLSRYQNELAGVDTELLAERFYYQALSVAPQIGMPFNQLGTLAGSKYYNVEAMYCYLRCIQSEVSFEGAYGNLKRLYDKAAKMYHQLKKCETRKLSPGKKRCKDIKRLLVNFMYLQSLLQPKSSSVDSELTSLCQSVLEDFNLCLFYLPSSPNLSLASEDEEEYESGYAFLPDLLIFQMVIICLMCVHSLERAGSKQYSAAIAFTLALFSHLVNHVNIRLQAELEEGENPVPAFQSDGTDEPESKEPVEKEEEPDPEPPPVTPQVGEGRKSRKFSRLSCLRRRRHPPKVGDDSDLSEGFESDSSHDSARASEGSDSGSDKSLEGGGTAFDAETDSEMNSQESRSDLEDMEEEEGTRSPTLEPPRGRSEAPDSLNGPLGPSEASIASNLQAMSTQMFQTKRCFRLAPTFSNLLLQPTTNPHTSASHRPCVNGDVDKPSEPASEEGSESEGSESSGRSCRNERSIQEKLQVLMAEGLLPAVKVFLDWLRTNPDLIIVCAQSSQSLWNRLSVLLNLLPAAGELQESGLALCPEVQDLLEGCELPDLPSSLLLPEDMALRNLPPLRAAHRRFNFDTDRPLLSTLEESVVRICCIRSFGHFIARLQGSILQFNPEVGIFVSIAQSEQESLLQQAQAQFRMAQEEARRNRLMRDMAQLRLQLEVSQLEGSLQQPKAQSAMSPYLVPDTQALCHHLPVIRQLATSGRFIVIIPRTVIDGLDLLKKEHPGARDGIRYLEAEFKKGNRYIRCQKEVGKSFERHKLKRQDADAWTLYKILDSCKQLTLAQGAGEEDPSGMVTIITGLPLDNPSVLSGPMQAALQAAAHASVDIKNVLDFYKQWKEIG

Key:
Assay in all cases: log2 fold change, soluble protein after heating vs DMSO (PISA); higher = thermal stabilisation; K562 lysate, 10 uM; active = over 0.2 and 3.5 SD of the protein, either way, in both replicates (recomputed)
[1] = compound: CS(=O)(=O)CCNCc1ccc(-c2ccc3ncnc(Nc4ccc(OCc5cccc(F)c5)c(Cl)c4)c3c2)o1 [lapatinib]
Summary of the method: (§1)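 K562 pellets were dounce-homogenised in PBS pH 7.4 with 1 mM MgCl2, and the crude extract at 1 mg/mL protein was treated with 10 μM compound for 30 min. Aliquots were heated for 3 min across 48°C-58°C, pooled, and brought to 0.5% NP-40 at 4°C; soluble protein was the supernatant after 21,000xg for 90 min. Soluble protein was quantified by TMTpro 16plex LC-MS/MS with channel sums equalised, and reported as log2 fold change in thermal stability against DMSO controls, with values from duplicates.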

[2] = compound: CS(=O)(=O)N1CCN(Cc2cc3nc(-c4cccc5[nH]ncc45)nc(N4CCOCC4)c3s2)CC1 [pictilisib]
Summary of the method: as §1

[3] = compound: C[C@@H](Oc1cc(-c2cnn(C3CCNCC3)c2)cnc1N)c1c(Cl)ccc(F)c1Cl [crizotinib]
Summary of the method: as §1

[4] = compound: C[C@H](C1=CC=C(C=C1)C(=O)NC2=C3C=CNC3=NC=C2)N
Summary of the method: as §1

[5] = compound: C[C@H](Nc1ncnc2nc[nH]c12)c1cc2cccc(Cl)c2c(=O)n1-c1ccccc1 [duvelisib]
Summary of the method: as §1

[6] = compound: Cc1cc(Nc2cc(CN3CCOCC3)c3nc(C)c(Cc4ccc(Cl)cc4F)n3n2)n[nH]1 [gandotinib]
Summary of the method: as §1

[7] = compound: Cc1cc(Nc2cc(N3CCN(C)CC3)nc(Sc3ccc(NC(=O)C4CC4)cc3)n2)n[nH]1 [tozasertib]
Summary of the method: as §1

[8] = compound: Cc1ccc(-n2nc(C(C)(C)C)cc2NC(=O)Nc2ccc(OCCN3CCOCC3)c3ccccc23)cc1 [doramapimod]
Summary of the method: as §1

[9] = compound: Cc1ccc(NC(=O)c2ccc(CN3CC[C@H](N(C)C)C3)c(C(F)(F)F)c2)cc1Nc1nccc(-c2cncnc2)n1 [bafetinib]
Summary of the method: as §1

[10] = compound: Cc1cccc(CC(=O)N2CCc3c2ccc(-c2cn(C)c4ncnc(N)c24)c3F)n1
Summary of the method: as §1

[11] = compound: Cc1cn(-c2cc(NC(=O)c3ccc(C)c(Nc4nccc(-c5cccnc5)n4)c3)cc(C(F)(F)F)c2)cn1 [nilotinib]
Summary of the method: as §1

[12] = compound: Cc1nc(Nc2n[nH]c3c2CN(C(=O)N[C@H](CN(C)C)c2ccccc2)C3(C)C)c2sccc2n1
Summary of the method: as §1

[13] = compound: Cc1nc(Nc2ncc(C(=O)Nc3c(C)cccc3Cl)s2)cc(N2CCN(CCO)CC2)n1 [dasatinib]
Summary of the method: as §1

[14] = compound: Cc1ncc(-c2ccnc(Nc3ccc(S(C)(=O)=O)cc3)n2)n1C(C)C
Summary of the method: as §1

[15] = compound: Cn1cc(-c2ccc3c(c2)CCN3C(=O)Cc2cccc(C(F)(F)F)c2)c2c(N)ncnc21
Summary of the method: as §1

[16] = compound: Cn1cc(CNCC2CCN(c3ncc(C(=O)NO)cn3)CC2)c2ccccc21 [quisinostat]
Summary of the method: as §1

[17] = compound: Cn1cncc1[C@@](N)(c1ccc(Cl)cc1)c1ccc2c(c1)c(-c1cccc(Cl)c1)cc(=O)n2C [tipifarnib]
Summary of the method: as §1

[18] = compound: NC(=O)Nc1cc(-c2cccc(F)c2)sc1C(=O)N[C@H]1CCCNC1
Summary of the method: as §1

[19] = compound: NC(=O)c1cnc(N[C@@H]2CCCC[C@@H]2N)nc1Nc1cccc(-n2nccn2)c1
Summary of the method: as §1

[20] = compound: NC1(c2ccc(-c3nc4ccn5c(=O)[nH]nc5c4cc3-c3ccccc3)cc2)CCC1
Summary of the method: as §1

Measured: log2 fold change

SNRNP40 (UniProt Q96DI7)
inactive: [1] -0.014 | [2] 0.063 | [3] -0.042 | [4] -0.075 | [5] -0.006 | [6] 0.167 | [7] 0.015 | [8] 0.121 | [9] 0.011 | [10] 0.089 | [11] 0.018 | [12] 0.03 | [13] -0.007 | [14] 0.019 | [15] -0.004 | [16] -0.027 | [17] 0.012 | [18] 0.013 | [19] -0.012 | [20] 0.002

SNX1 (UniProt Q13596)
inactive: [1] -0.013 | [2] 0.007 | [3] 0.027 | [4] -0.012 | [5] -0.003 | [6] -0.003 | [7] 0.007 | [8] -0.009 | [9] -0.025 | [10] 0.024 | [11] 0.004 | [12] -0.008 | [13] 0.001 | [14] 0.003 | [15] 0.026 | [16] 0.034 | [17] 0.007 | [18] 0.02 | [19] 0.005 | [20] 0.003

SNX2 (UniProt O60749)
inactive: [1] -0.038 | [2] -0.003 | [3] -0.038 | [4] -0.023 | [5] -0.035 | [6] -0.058 | [7] -0.014 | [8] -0.06 | [9] -0.024 | [10] -0.017 | [11] 0.003 | [12] -0.01 | [13] -0.026 | [14] 0.013 | [15] 0.03 | [16] 0.044 | [17] 0.003 | [18] 0.01 | [19] -0.004 | [20] 0.021

SOS1 (UniProt Q07889)
inactive: [1] -0.042 | [2] -0.04 | [3] -0.106 | [4] 0.032 | [5] 0.041 | [6] 0.016 | [7] -0.002 | [8] 0.031 | [9] -0.105 | [10] -0.01 | [11] -0.047 | [12] 0.021 | [13] -0.072 | [14] 0.052 | [15] 0.07 | [16] -0.042 | [17] -0.015 | [18] 0.065 | [19] 0.034 | [20] 0.035

SORBS1 isoform 8 (UniProt Q9BX66)
inactive: [1] 0.031 | [2] 0.021 | [3] 0.029 | [4] 0.015 | [5] -0.018 | [6] 0.038 | [7] 0.022 | [8] 0.029 | [9] 0.011 | [10] -0.005 | [11] 0.015 | [12] -0.012 | [13] 0.008 | [14] 0.029 | [15] 0.017 | [16] -0.02 | [17] 0.029 | [18] -0.019 | [19] 0.023 | [20] -0.027

SMS (UniProt P52788)
inactive: [1] -0.019 | [2] 0.008 | [3] -0.007 | [4] 0.063 | [5] 0.008 | [6] -0.05 | [7] -0.005 | [8] -0.005 | [9] 0.025 | [10] -0.052 | [11] 0.016 | [12] 0 | [13] -0.025 | [14] -0.003 | [15] 0.003 | [16] -0.003 | [17] -0.008 | [18] -0.007 | [19] 0.001 | [20] 0

SNX5 (UniProt Q9Y5X3)
inactive: [1] 0.014 | [2] 0.014 | [3] 0.034 | [4] 0.061 | [5] -0.006 | [6] -0.009 | [7] 0 | [8] 0.02 | [9] -0.011 | [10] -0.038 | [11] -0.012 | [12] 0.007 | [13] -0.004 | [14] 0.005 | [15] 0.015 | [16] 0.041 | [17] 0 | [18] 0.005 | [19] -0.004 | [20] 0.033

SNRNP200 (UniProt O75643)
inactive: [1] -0.011 | [2] -0.003 | [3] -0.014 | [4] -0.041 | [5] 0.028 | [6] -0.009 | [7] -0.003 | [8] -0.005 | [9] -0.043 | [10] 0.059 | [11] -0.013 | [12] 0.001 | [13] -0.014 | [14] -0.004 | [15] 0.011 | [16] -0.003 | [17] 0 | [18] 0.019 | [19] 0.015 | [20] -0.026

SMN1 (UniProt Q16637)
inactive: [1] 0.086 | [2] 0.035 | [3] -0.183 | [4] -0.031 | [5] 0.021 | [6] -0.056 | [7] 0.049 | [8] 0.022 | [9] 0.036 | [10] 0.158 | [11] 0.012 | [12] 0.019 | [13] -0.005 | [14] -0.023 | [15] 0.05 | [16] -0.146 | [17] 0 | [18] -0.001 | [19] 0.047 | [20] 0

SNTB2 (UniProt Q13425)
inactive: [1] -0.032 | [2] -0.004 | [3] 0.024 | [4] 0.02 | [5] 0.078 | [6] -0.004 | [7] 0.138 | [8] 0.021 | [9] -0.013 | [10] 0.032 | [11] 0.038 | [12] -0.004 | [13] -0.044 | [14] -0.023 | [15] 0.074 | [16] -0.222 | [17] -0.005 | [18] 0.188 | [19] -0.005 | [20] -0.081

SMIM12 (UniProt Q96EX1)
active: [4] 0.417
inactive: [1] 0.014 | [2] 0.022 | [3] -0.024 | [5] -0.061 | [6] -0.191 | [7] -0.009 | [8] 0.077 | [9] -0.083 | [10] -0.153 | [11] 0.014 | [12] 0.025 | [13] 0.09 | [14] 0.027 | [15] 0.061 | [16] -0.093 | [17] -0.023 | [18] 0.002 | [19] -0.016 | [20] -0.041

SOD2 (UniProt P04179)
inactive: [1] -0.006 | [2] 0.01 | [3] 0.036 | [4] -0.062 | [5] 0.02 | [6] 0.081 | [7] -0.027 | [8] -0.084 | [9] 0.102 | [10] 0.019 | [11] 0.038 | [12] -0.008 | [13] -0.016 | [14] 0.015 | [15] -0.002 | [16] 0.058 | [17] -0.005 | [18] -0.061 | [19] -0.007 | [20] 0.008

SOCS2 (UniProt O14508)
inactive: [1] -0.046 | [2] -0.013 | [3] -0.02 | [4] -0.032 | [5] 0.003 | [6] 0.045 | [7] 0.037 | [8] 0.035 | [9] -0.022 | [10] 0.107 | [11] -0.007 | [12] -0.026 | [13] 0.012 | [14] 0.034 | [15] 0.003 | [16] -0.003 | [17] 0.038 | [18] 0.036 | [19] 0.011 | [20] -0.023

SNRNP48 (UniProt Q6IEG0)
inactive: [1] 0.007 | [2] 0.047 | [3] 0.01 | [4] -0.243 | [5] -0.061 | [6] 0.054 | [7] -0.049 | [8] 0.088 | [9] -0.192 | [10] 0.198 | [11] -0.04 | [12] 0.05 | [13] -0.007 | [14] 0 | [15] 0.046 | [16] -0.002 | [17] -0.093 | [18] 0.01 | [19] -0.02 | [20] -0.079

SOHLH2 isoform 3 (UniProt Q9NX45)
inactive: [1] 0.014 | [2] 0.042 | [3] 0.094 | [4] -0.026 | [5] 0.025 | [6] 0.001 | [7] 0.091 | [8] 0.048 | [9] -0.055 | [10] 0.005 | [11] -0.013 | [12] 0.027 | [13] 0.025 | [14] -0.071 | [15] -0.004 | [16] 0.031 | [17] 0.006 | [18] -0.047 | [19] -0.006 | [20] 0.023

SMG5 (UniProt Q9UPR3)
inactive: [1] -0.038 | [2] 0.057 | [3] -0.007 | [4] 0.01 | [5] -0.006 | [6] -0.003 | [7] 0.019 | [8] -0.131 | [9] -0.035 | [10] -0.007 | [11] -0.058 | [12] 0.034 | [13] 0.003 | [14] -0.054 | [15] 0.03 | [16] 0.013 | [17] -0.115 | [18] 0.097 | [19] 0.048 | [20] -0.027
